Patent US4461761A, “Oligomers of compounds of the muramyl-peptide type and medicaments containing them” (priority 1978, dated 1984)
Part of at least one peptide drawing is inferred or uncertain, most often the ends.

System: Klebsiella pneumoniae
Assay: Anti-Klebsiella pneumoniae activity in the adult mouse
Format: in vivo
Conditions: infection i.m. 1.5 × 10^4, treatment -24 h, i.v., 100 μg
Protocol: An experimental procedure was studied by CHEDID L. et coll. in "Proc. Natl. Acad. Sci. USA," 1977, 74: 2089, which permits the stimulating effect or not to be observed of substances studied with regard to immune defenses according as they protect or not the mice to which they are injected, the mice being inoculated by a dose of Klebsiella pneumoniae which results in the death of almost all of the controls.
The testing procedure is described in the article CHEDID L. et coll., Proc. Natl. Acad. Sci. USA, 74:2089.
It was shown that a dose of about 10^4 Klebsiella pneumoniae, injected by the intramuscular route in mice, results in the gradual death of a considerable part, if not all, of the animals in the week following the inoculation. After 8 days, the survival of the animals was definitely achieved.
The survival of groups of inoculated mice under the above conditions and treated by means of the products according to the invention was followed.
For these tests, hybrid mice (C57B1/6×AKR) FI bred at the PASTEUR INSTITUTE, from strains derived from the CNRS breeding station at ORLEANS, were used.
The infection by Klebsiella pneumoniae, a strain of the capsular 2, biotype d type, was done from a culture of 16 hours in a medium for pneumococci (No. 53515, PASTEUR INSTITUTE).
Various treatment conditions and tests have been studied. Thus, the treatment was carried out either 24 hours before the test, or 1 hour after the latter. The influence of the infecting dose and the mode of administration has also been studied. In particular, the protective properties of the products have been determined in the case of an injection of Klebsiella pneumoniae by the intravenous route, which corresponds to a severe infection.
In the majority of cases, the tests have been carried out on mice aged from 5 to 6 weeks. In one part of the tests, on the other hand, mice 7 days old were used, since the immune responses, in very young subjects are substantially different, and, on the whole, much more difficult to stimulate than those that are observed in adult subjects. […]

CC(=O)N[C@H]1C(O)O[C@H](CO)[C@@H](O)[C@@H]1O[C@H](C)C(=O)N[C@@H](C)C(=O)N[C@H](CCC(=O)N[C@@H](CCCCNC(=O)[C@H](CCCCNC(=O)[C@H](CCCCN)NC(=O)CC[C@@H](NC(=O)[C@H](C)NC(=O)[C@@H](C)O[C@H]1[C@H](O)[C@@H](CO)OC(O)[C@@H]1NC(C)=O)C(N)=O)NC(=O)CC[C@@H](NC(=O)[C@H](C)NC(=O)[C@@H](C)O[C@H]1[C@H](O)[C@@H](CO)OC(O)[C@@H]1NC(C)=O)C(N)=O)C(N)=O)C(N)=O (stereo partly drawn) [H(N--α-MDP-Lys)3 NH2, N^α -N-acetyl-muramyl-L-alanyl-D-isoglutamine-N^ε [N^α -N-acetyl-muramyl-L-alanyl-D-isoglutamine-N^ε (N^α -N-acetyl-muramyl-L-alanyl-D-isoglutamine-lysyl)lysyl]-lysyl-amide] was tested, and the “Number of mice D + 3 (survivors)” value was 20, the “Number of mice D + 5 (survivors)” value was 17 and the “Number of mice D + 10 (survivors)” value was 15.
